These are yes or no findings as the source states them, for the method shown. In cells and extracts the contact can be indirect. Some results given as binding are weak or reduced against the parent protein; the word gives no strength.
T1: RTEL1 helicase (human (endogenous in U2OS)) (UniProt Q9NZ71)
T1 sequence: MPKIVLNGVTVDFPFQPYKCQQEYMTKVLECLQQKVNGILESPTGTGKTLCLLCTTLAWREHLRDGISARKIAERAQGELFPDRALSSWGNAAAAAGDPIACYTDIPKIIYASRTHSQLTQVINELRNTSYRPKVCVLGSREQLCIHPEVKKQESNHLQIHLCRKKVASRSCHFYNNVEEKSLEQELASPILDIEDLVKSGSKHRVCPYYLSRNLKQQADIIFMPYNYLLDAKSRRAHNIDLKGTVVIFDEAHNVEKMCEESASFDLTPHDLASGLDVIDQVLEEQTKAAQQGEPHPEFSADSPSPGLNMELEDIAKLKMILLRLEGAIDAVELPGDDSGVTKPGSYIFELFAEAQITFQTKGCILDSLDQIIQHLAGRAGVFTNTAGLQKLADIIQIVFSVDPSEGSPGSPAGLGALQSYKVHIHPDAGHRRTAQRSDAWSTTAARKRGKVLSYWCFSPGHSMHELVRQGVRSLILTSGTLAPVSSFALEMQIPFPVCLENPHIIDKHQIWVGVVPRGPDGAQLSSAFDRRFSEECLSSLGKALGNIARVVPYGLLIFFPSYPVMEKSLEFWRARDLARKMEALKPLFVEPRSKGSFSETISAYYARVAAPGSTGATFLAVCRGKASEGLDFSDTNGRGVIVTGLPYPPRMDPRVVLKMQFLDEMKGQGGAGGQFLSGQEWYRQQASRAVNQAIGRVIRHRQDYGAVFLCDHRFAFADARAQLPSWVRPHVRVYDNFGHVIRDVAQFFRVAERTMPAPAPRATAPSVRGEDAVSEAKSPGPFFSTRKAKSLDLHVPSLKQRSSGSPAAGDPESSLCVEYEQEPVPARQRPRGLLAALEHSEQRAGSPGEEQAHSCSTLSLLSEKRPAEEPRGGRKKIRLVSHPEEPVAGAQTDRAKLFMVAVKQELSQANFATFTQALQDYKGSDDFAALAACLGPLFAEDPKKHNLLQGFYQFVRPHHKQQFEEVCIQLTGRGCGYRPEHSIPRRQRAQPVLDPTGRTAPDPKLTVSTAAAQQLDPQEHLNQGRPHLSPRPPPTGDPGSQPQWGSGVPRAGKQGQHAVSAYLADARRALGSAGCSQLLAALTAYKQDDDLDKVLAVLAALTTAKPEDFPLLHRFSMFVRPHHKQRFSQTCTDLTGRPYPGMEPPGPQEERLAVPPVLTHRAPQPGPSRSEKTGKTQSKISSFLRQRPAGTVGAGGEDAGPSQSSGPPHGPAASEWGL

Sequences of proteins named here, by UniProt entry; tags and fusion partners are left off.
UniProt O94762: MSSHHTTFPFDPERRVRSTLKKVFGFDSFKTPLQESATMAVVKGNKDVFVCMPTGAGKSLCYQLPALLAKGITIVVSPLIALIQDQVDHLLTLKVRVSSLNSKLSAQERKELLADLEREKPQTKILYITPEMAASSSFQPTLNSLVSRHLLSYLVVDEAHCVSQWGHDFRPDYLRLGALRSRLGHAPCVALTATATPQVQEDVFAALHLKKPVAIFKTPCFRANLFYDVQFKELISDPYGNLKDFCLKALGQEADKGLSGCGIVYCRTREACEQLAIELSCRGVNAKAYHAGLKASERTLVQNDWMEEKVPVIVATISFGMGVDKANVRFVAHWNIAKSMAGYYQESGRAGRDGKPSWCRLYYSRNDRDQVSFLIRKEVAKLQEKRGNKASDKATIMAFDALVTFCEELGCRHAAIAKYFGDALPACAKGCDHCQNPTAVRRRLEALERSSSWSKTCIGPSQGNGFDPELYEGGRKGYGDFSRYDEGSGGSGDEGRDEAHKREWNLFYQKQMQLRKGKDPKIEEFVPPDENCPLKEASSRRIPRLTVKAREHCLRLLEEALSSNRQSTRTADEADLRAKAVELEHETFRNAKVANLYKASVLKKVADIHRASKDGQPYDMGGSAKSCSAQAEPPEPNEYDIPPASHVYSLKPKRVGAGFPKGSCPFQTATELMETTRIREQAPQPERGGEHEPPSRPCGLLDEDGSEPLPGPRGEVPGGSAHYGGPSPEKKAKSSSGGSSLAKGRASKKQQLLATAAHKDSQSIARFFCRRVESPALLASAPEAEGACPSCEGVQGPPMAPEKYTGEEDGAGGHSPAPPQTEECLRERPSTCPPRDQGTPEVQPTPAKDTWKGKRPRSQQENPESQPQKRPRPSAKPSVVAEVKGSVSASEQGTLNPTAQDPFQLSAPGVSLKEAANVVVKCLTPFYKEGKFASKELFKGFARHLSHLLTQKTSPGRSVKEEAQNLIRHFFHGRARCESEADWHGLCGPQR
UniProt Q06609: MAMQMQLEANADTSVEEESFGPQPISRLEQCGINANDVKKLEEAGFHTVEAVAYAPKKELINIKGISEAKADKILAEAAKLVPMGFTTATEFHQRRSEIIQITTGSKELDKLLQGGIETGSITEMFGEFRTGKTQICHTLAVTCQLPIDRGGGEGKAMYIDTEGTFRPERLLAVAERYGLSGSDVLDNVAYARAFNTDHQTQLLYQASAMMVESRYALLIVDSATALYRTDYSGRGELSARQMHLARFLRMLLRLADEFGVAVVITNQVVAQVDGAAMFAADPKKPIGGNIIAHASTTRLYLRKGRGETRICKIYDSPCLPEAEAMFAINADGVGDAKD


Experiments:
[1] = target: T1, RTEL1 helicase (human (endogenous in U2OS)); assay: co-IP; endogenous proteins from U2OS lysates, cells with or without HU (2 mM, 4 h); HEPES-Triton buffer (35 mM HEPES KOH pH 7.6, 200 mM NaCl, 1 mM EDTA, 0.75% Triton X-100, 8% glycerol), 3 ug antibody overnight at 4 C, protein A beads; without benzonase treatment; immunoblot
[2] = target: RECQL5 helicase (human (endogenous in U2OS)) (UniProt O94762); assay: as above

Row | binding [1] | binding [2] | Molecule
1 | binds | binds | RAD51 recombinase (from UniProt Q06609 1-339)
2 | binds | – | RECQL5 helicase (from UniProt O94762 1-991)
3 | – | binds | RTEL1 helicase (protein, UniProt Q9NZ71 1-1219) MPKIVLNGVTVDFPFQPYKCQQEYMTKVLECLQQKVNGILESPTGTGKTLCLLCTTLAWREHLRDGISARKIAERAQGELFPDRALSSWGNAAAAAGDPIACYTDIPKIIYASRTHSQLTQVINELRNTSYRPKVCVLGSREQLCIHPEVKKQESNHLQIHLCRKKVASRSCHFYNNVEEKSLEQELASPILDIEDLVKSGSKHRVCPYYLSRNLKQQADIIFMPYNYLLDAKSRRAHNIDLKGTVVIFDEAHNVEKMCEESASFDLTPHDLASGLDVIDQVLEEQTKAAQQGEPHPEFSADSPSPGLNMELEDIAKLKMILLRLEGAIDAVELPGDDSGVTKPGSYIFELFAEAQITFQTKGCILDSLDQIIQHLAGRAGVFTNTAGLQKLADIIQIVFSVDPSEGSPGSPAGLGALQSYKVHIHPDAGHRRTAQRSDAWSTTAARKRGKVLSYWCFSPGHSMHELVRQGVRSLILTSGTLAPVSSFALEMQIPFPVCLENPHIIDKHQIWVGVVPRGPDGAQLSSAFDRRFSEECLSSLGKALGNIARVVPYGLLIFFPSYPVMEKSLEFWRARDLARKMEALKPLFVEPRSKGSFSETISAYYARVAAPGSTGATFLAVCRGKASEGLDFSDTNGRGVIVTGLPYPPRMDPRVVLKMQFLDEMKGQGGAGGQFLSGQEWYRQQASRAVNQAIGRVIRHRQDYGAVFLCDHRFAFADARAQLPSWVRPHVRVYDNFGHVIRDVAQFFRVAERTMPAPAPRATAPSVRGEDAVSEAKSPGPFFSTRKAKSLDLHVPSLKQRSSGSPAAGDPESSLCVEYEQEPVPARQRPRGLLAALEHSEQRAGSPGEEQAHSCSTLSLLSEKRPAEEPRGGRKKIRLVSHPEEPVAGAQTDRAKLFMVAVKQELSQANFATFTQALQDYKGSDDFAALAACLGPLFAEDPKKHNLLQGFYQFVRPHHKQQFEEVCIQLTGRGCGYRPEHSIPRRQRAQPVLDPTGRTAPDPKLTVSTAAAQQLDPQEHLNQGRPHLSPRPPPTGDPGSQPQWGSGVPRAGKQGQHAVSAYLADARRALGSAGCSQLLAALTAYKQDDDLDKVLAVLAALTTAKPEDFPLLHRFSMFVRPHHKQRFSQTCTDLTGRPYPGMEPPGPQEERLAVPPVLTHRAPQPGPSRSEKTGKTQSKISSFLRQRPAGTVGAGGEDAGPSQSSGPPHGPAASEWGL

— publication PMC12526125
